# Test results as given in patent US20210206817A1 (priority 2014, published 2021).
# Assay: general procedure: Fmoc solid-phase peptide synthesis; Wang resin; HBTU/HOBt/DIPEA
# Conditions: whole synthesis; for final HPLC purity: 220 nm; for isolated mass / isolated yield: scale 15 μmol
Substance,final HPLC purity [%],isolated mass [mg],isolated yield [%]
CF3(CF2)7(CH2)2C(O)-Lys-Phe-Arg-Arg-Gln-Arg-Pro-Arg-Leu-Ser-His-Lys-Gly-Pro-Met-Pro-Phe-OH,>98,20.6,49
CH3(CH2)14C(O)-Lys-Phe-Arg-Arg-Gln-Arg-Pro-Arg-Leu-Ser-His-Lys-Gly-Pro-Met-Pro-Phe-OH,>98,7.5,16
